# Experimental data as given in PMC7819943, “Rice protein-binding microarrays: a tool to detect cis-acting elements near promoter regions in rice”.
# Protein sequences, listed by entry. Tags and fused reporters are not part of them.
# UniProt Q0JBA9, entry or part of it: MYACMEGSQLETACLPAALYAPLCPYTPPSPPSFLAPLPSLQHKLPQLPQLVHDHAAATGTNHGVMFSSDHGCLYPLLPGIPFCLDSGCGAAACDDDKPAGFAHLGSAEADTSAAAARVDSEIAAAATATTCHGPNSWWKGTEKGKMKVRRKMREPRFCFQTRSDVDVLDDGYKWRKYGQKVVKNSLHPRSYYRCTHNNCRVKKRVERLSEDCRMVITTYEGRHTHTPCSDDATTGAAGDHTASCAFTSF
# The list shows a part of the results.
# Target: OsWRKY34 (Oryza sativa, UniProt Q0JBA9 1-250)
# Experiment: protein-binding microarray (RPBM); PBS, 2% BSA, 51.3 ng/ul salmon testes DNA, 50 uM zinc acetate, 200 nM TF, 25 C, 1 h; high values mean tight binding
# Details: protein: recombinant; tags: N-terminal polyhistidine and DsRed monomer fusion (pET32a); label: CyDye5-dUTP incorporated in the synthesized complementary strand; 3' TTTTT single-stranded linker to array surface; dsDNA, one strand shown
# How it was run: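 Transcription factors, each fused N-terminally to a polyhistidine tag and DsRed, were expressed in E. coli BL21-CodonPlus and purified on Ni–NTA. A custom Agilent array was made double-stranded by primer extension with Cy5-dUTP and blocked with 2% BSA. It was incubated with 200 nM protein in PBS, 2% BSA, salmon testes DNA and 50 µM zinc acetate at 25 °C for 1 h, then washed. The binding signal is per-feature fluorescence intensity (arbitrary units) read on an Axon 4000B scanner.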
row,Sequence,binding signal
1,CTCTTATCTCACCCTCTGCAATCATCTTACTACCTCCGTCCGGAGTCACCTAGTGCAG,9290 fluorescence intensity (a.u.)
2,GCTGCCCTGCCACCTTCGCCTCACGAACGCCAGCCTCGCTCGGAGTCACCTAGTGCAG,8300 fluorescence intensity (a.u.)
3,CTTTCTCCTGTGTGATTTACGTCTTGTAGTTTCTGTGAGTCGGAGTCACCTAGTGCAG,8670 fluorescence intensity (a.u.)
4,CTGGTTTTGTGTTTCGAGAACGTTTTTTATCCCGATGACACGGAGTCACCTAGTGCAG,11400 fluorescence intensity (a.u.)
5,TTTTTTGAATAAGACAAATGGAAAAAGTCAACGGCGTCATCGGAGTCACCTAGTGCAG,9360 fluorescence intensity (a.u.)
6,AAATTGTCCTGAAAGCTCTGTGACCGAACCAATGTCTTTGCGGAGTCACCTAGTGCAG,8370 fluorescence intensity (a.u.)
7,GCGCCACTCTCGCTGACTCGCTCGCTGCCAAGCTCGCCGGCGGAGTCACCTAGTGCAG,8440 fluorescence intensity (a.u.)
8,GATCGTGACGACTCACCAAGGCCTAGGATTATTTATGTATCGGAGTCACCTAGTGCAG,8040 fluorescence intensity (a.u.)
9,ATAGCAGCTCATAGTATTCTCCATTGCAATCCTGTCGTCTCGGAGTCACCTAGTGCAG,8150 fluorescence intensity (a.u.)
10,TGTCAATTTGTATTTTGAAGGGTTGGTCCAATACACTAAGCGGAGTCACCTAGTGCAG,8020 fluorescence intensity (a.u.)
11,TTATACTAATAGTTGGCGTATCATATCTGGTTTTATAATTCGGAGTCACCTAGTGCAG,8720 fluorescence intensity (a.u.)
12,GGCATATAATAGATTCTCTCTTTCTCTCTTACTCCTTTTTCGGAGTCACCTAGTGCAG,8150 fluorescence intensity (a.u.)
13,TCGCTAACCTCGCCCACCACTTTCCTGATCTAGCCCCATACGGAGTCACCTAGTGCAG,8960 fluorescence intensity (a.u.)
14,TTCTTCTTTCATAAAACCACATCATCTTACTTTTACATTTCGGAGTCACCTAGTGCAG,9390 fluorescence intensity (a.u.)
15,CTCGCTTCTTCTTCCTTCTTTCCGTCCTCGCCGCCCCGCGCGGAGTCACCTAGTGCAG,8470 fluorescence intensity (a.u.)
16,GATGTCAACATTGGTCTGTGTGGTGTGTGCTCCGGATGATCGGAGTCACCTAGTGCAG,11200 fluorescence intensity (a.u.)
17,CCGGCCATCTGCATTGCATTTGCTCTCTCTCTCTCTCTCTCGGAGTCACCTAGTGCAG,10400 fluorescence intensity (a.u.)
18,GTGGGGCGGTGGCTGCTGCATTGCATTGGGCGGGAGAGATCGGAGTCACCTAGTGCAG,17200 fluorescence intensity (a.u.)
19,TACTGTTTAAAATTATCCAAGGCTTTTATGGGGCGGGCTTCGGAGTCACCTAGTGCAG,14800 fluorescence intensity (a.u.)
20,CTAGGAAGCCACCAACCGCGGCGTTTGATCTCAGGTTTGACGGAGTCACCTAGTGCAG,8230 fluorescence intensity (a.u.)
21,CAATGTATGATCACGTCTCCTTCTGTTCTTGGTCTGTCAACGGAGTCACCTAGTGCAG,10300 fluorescence intensity (a.u.)

# Fetched one by one from the list above:
row,Sequence,binding signal
7,GCGCCACTCTCGCTGACTCGCTCGCTGCCAAGCTCGCCGGCGGAGTCACCTAGTGCAG,8440 fluorescence intensity (a.u.)
6,AAATTGTCCTGAAAGCTCTGTGACCGAACCAATGTCTTTGCGGAGTCACCTAGTGCAG,8370 fluorescence intensity (a.u.)
10,TGTCAATTTGTATTTTGAAGGGTTGGTCCAATACACTAAGCGGAGTCACCTAGTGCAG,8020 fluorescence intensity (a.u.)

# Continued.

row,Sequence,binding signal
1,ATTCCACTCATATTATTACATGAAATTATTTTCTCCTCAACGGAGTCACCTAGTGCAG,9010 fluorescence intensity (a.u.)
2,TTGGTCTGTTTGCTTCTATTTGAACTTCACTCTTACAGAGCGGAGTCACCTAGTGCAG,9240 fluorescence intensity (a.u.)
3,TCATCTCACGCTGTTGACTTTCTCTTTTTTTTTCGGGGAGCGGAGTCACCTAGTGCAG,18000 fluorescence intensity (a.u.)
4,CATCCATCCTGTGCATTACTTCACTATATCAGAAGAATTCCGGAGTCACCTAGTGCAG,9070 fluorescence intensity (a.u.)
5,CTCTCACACGCACGCGCGTCGCCGCCACTACACTCTCATGCGGAGTCACCTAGTGCAG,10100 fluorescence intensity (a.u.)
6,GATGTTTTTCATGCAACATATGGCTTTAACACTCACAGTTCGGAGTCACCTAGTGCAG,9000 fluorescence intensity (a.u.)
7,TCCGACGGCCGCCTCATCATCGACTTCATCGGTACGCCTCCGGAGTCACCTAGTGCAG,8670 fluorescence intensity (a.u.)
8,CTAGCCCATCGTTAATCTAGTACCACCTATTTTATATACTCGGAGTCACCTAGTGCAG,10400 fluorescence intensity (a.u.)
9,AGGAGGTGCTTATAGAGGTATGATGTGCGGTGTTTATGTTCGGAGTCACCTAGTGCAG,10500 fluorescence intensity (a.u.)
10,CCGGAGCCGCTTCTTCTCCGTCCGCCGCCGGAGCAGGTCCCGGAGTCACCTAGTGCAG,8140 fluorescence intensity (a.u.)
11,TTCCCATACCAAACACCAGCTCACACACACTGTCTTCCAGCGGAGTCACCTAGTGCAG,8650 fluorescence intensity (a.u.)
12,GGAATGGAGGGAGCAGTATCACGTCGTTAAAGTTGTTGTACGGAGTCACCTAGTGCAG,10100 fluorescence intensity (a.u.)
13,CATGCCATTTCGTCCCTCCATCTACCCGCTCCACGCCGCCCGGAGTCACCTAGTGCAG,10600 fluorescence intensity (a.u.)
14,TAGCAGCCGCGCCTTCCAGCTCGCCGCGACCGCCCGTGCCCGGAGTCACCTAGTGCAG,8610 fluorescence intensity (a.u.)
15,CACTGGGCCTGCCTCTACCCTACCGGCCACTATACTGCTACGGAGTCACCTAGTGCAG,8210 fluorescence intensity (a.u.)
16,CACGAGCATGTACTATAGTTTGATGCTTATTTCCTGTCTTCGGAGTCACCTAGTGCAG,10000 fluorescence intensity (a.u.)
17,TGGCTTTTTTGTATTCGGGCCCCTTGCCGCCCCACCAGAGCGGAGTCACCTAGTGCAG,10000 fluorescence intensity (a.u.)
18,CTTGAGGTCCTTCGATGGTTTTGACCCTGATTTTATTTGACGGAGTCACCTAGTGCAG,9060 fluorescence intensity (a.u.)
19,GGGCCTAGTTTTTCCAGGTAAAGTTGACCAAAAGTCTTCACGGAGTCACCTAGTGCAG,8890 fluorescence intensity (a.u.)
20,AATCTTAACTACTCTCTCCGTTTCACAATGTAAGTCATTTCGGAGTCACCTAGTGCAG,9210 fluorescence intensity (a.u.)
21,ACCGCCATTTCTGGTTTCTTGGCCGCCCTCTGCCACCACTCGGAGTCACCTAGTGCAG,10300 fluorescence intensity (a.u.)
